Values joined by “and” are separate entries in the source; they are usually repeats but may differ in a detail not shown here. Identical values can stand only once. Further values from the same series stand in other lists.
Key:
[1] = Plasma toxicokinetics after single i.v. bolus; assay type: in vivo, Sprague-Dawley rats; settings: Rat Plasma, Anatabine 1.0 mg/kg
Protocol: (§1) Six rats (3 males and 3 females) were dosed per dose group. […] Plasma and brain homogenates were stored at −80° C. until analysis.
(§2) An additional 48 rats (24 males and 24 females) received a single intravenous dose via the tail vein at the same doses as mentioned above. At 30 and 360 minutes post administration, 6 rats (3 males and 3 females) per dose group, per time point were euthanized, bled via cardiac puncture, and perfused, and brains were collected. The brains were homogenized. Blood was spun, and plasma was collected. Plasma and brain homogenate were stored at −80° C.
Four aliquots of each dose level formulation were collected and stored at −80° C. The test compound, corresponding dose level, number of animals, and sample collection times for Phase I of the study are shown in Table 3. The test compound, corresponding dose level, number of animals, and sample collection times for Phase II of the study are shown in Table 4. The physical signs of each animal were monitored following administration of the test compound.
(§3) The animals were weighed prior to dosing and received a single i.v. dose of either test compound at a volume of 5 mL/kg. Blood was collected via the venus plexus (retro-orbital) into tubes containing (K2) EDTA. No more than 0.5 mL was collected per time point. […] The brain was removed, weighed, homogenized in sterile 0.9% saline at a volume equal to its weight, and stored at −80° C.
Plasma was separated according to the instructions for MICROTAINER® brand collection tubes (3 minutes, 2000×g). Plasma was decanted into microfuge tubes and stored at −80° C. Remaining test compound was stored at −80° C.
(§4) The amount of the test agent in the supernatant was determined by liquid chromatography tandem mass spectrometry (LC/MS/MS).
(§5) Analysis. Samples were analyzed by LC/MS/MS using an Agilent 6410 mass spectrometer coupled with an Agilent 1200 high pressure liquid chromatography (HPLC) and a CTC PAL chilled autosampler, all controlled by MassHunter software (Agilent). After separation on a hydrophilic interaction liquid chromatography (HILIC) HPLC column (Sepax) using an acetonitrile-ammonium acetate/acetic acid gradient system, peaks were analyzed by mass spectrometry (MS) using ESI ionization in multiple reaction monitoring (MRM) mode. MassHunter software was used to calculate the concentration of the test compounds in samples from the peak area using the appropriate calibration curves.

[2] = Brain extract concentrations after single i.v. bolus; assay type: in vivo, Sprague-Dawley rats; settings: for Concentration in rat brain extract: individual rats; for Avg. Conc. (Combined Male and Female) / Avg. Conc. (Male or Female): Rat Brain
Protocol: as §1, §2, §3, §4, §5

C1=CCC(c2cccnc2)NC1 (racemic) [Anatabine, 1,2,3,6-tetrahydro-[2,3′]bipyridinyl]
Avg. Conc. (Male or Female) ([1]; female, 0.5 hr (2nd line)): 368.0 ng/mL
Avg. Conc. (Male or Female) ([1]; female, 1 hr): 229.0 ng/mL
Avg. Conc. (Male or Female) ([1]; female, 2 hr): 163.7 ng/mL
Avg. Conc. (Male or Female) ([1]; female, 4 hr): 60.7 ng/mL
Avg. Conc. (Male or Female) ([1]; female, 6 hr (1st line)): 29.3 ng/mL
Avg. Conc. (Male or Female) ([1]; female, 6 hr (2nd line)): 23.0 ng/mL
Avg. Conc. (Male or Female) ([1]; female, 8 hr): 17.7 ng/mL
Avg. Conc. (Male or Female) ([1]; male, 0.5 hr (2nd line)): 399.0 ng/mL
Avg. Conc. (Male or Female) ([1]; male, 1 hr): 233.7 ng/mL
Avg. Conc. (Male or Female) ([1]; male, 4 hr): 42.3 ng/mL
Avg. Conc. (Male or Female) ([1]; male, 6 hr (1st line)): 18.0 ng/mL
Avg. Conc. (Male or Female) ([1]; male, 6 hr (2nd line)): 27.0 ng/mL
Avg. Conc. (Male or Female) ([1]; male, 8 hr): 7.7 ng/mL
Concentration in rat brain extract ([2]; Anatabine 0.1 mg/kg dose group, time point 0.5 hr): 19 ng/mL and 21 ng/mL and 34 ng/mL and 25 ng/mL and 30 ng/mL
Concentration in rat brain extract ([2]; Anatabine 0.1 mg/kg dose group, time point 6 hr): 3 ng/mL and 5 ng/mL and 4 ng/mL and 2 ng/mL
Concentration in rat brain extract ([2]; Anatabine 0.1 mg/kg dose group, time point 24 hr): 3 ng/mL and 2 ng/mL
Concentration in rat brain extract ([2]; Anatabine 0.75 mg/kg dose group, time point 6 hr): 16 ng/mL and 28 ng/mL and 19 ng/mL and 17 ng/mL and 27 ng/mL and 20 ng/mL
Concentration in rat brain extract ([2]; Anatabine 1.0 mg/kg dose group, time point 6 hr): 3 ng/mL and 4 ng/mL (2×) and 8 ng/mL (2×)
Concentration in rat brain extract ([2]; Anatabine 1.0 mg/kg dose group, time point 24 hr): 3 ng/mL and 2 ng/mL
Avg. Conc. (Combined Male and Female) ([2]; Anatabine 0.1 mg/kg, 6 hr): 3.5 ng/g
Avg. Conc. (Combined Male and Female) ([2]; Anatabine 0.1 mg/kg, 24 hr): 2.5 ng/g
Avg. Conc. (Male or Female) ([2]; Anatabine 0.1 mg/kg, female, 0.5 hr): 29.7 ng/g
Avg. Conc. (Male or Female) ([2]; Anatabine 0.1 mg/kg, female, 6 hr): 3.7 ng/g
Avg. Conc. (Male or Female) ([2]; Anatabine 0.1 mg/kg, female, 24 hr): 2.0 ng/g
Avg. Conc. (Male or Female) ([2]; Anatabine 0.1 mg/kg, male, 0.5 hr): 20.0 ng/g
Avg. Conc. (Male or Female) ([2]; Anatabine 0.1 mg/kg, male, 6 hr): 3.0 ng/g
Avg. Conc. (Male or Female) ([2]; Anatabine 0.1 mg/kg, male, 24 hr): 3.0 ng/g
Avg. Conc. (Combined Male and Female) ([2]; Anatabine 0.75 mg/kg, 0.5 hr): 295.3 ng/g
Avg. Conc. (Combined Male and Female) ([2]; Anatabine 0.75 mg/kg, 6 hr): 21.2 ng/g
Avg. Conc. (Male or Female) ([2]; Anatabine 0.75 mg/kg, female, 0.5 hr): 314.7 ng/g
Avg. Conc. (Male or Female) ([2]; Anatabine 0.75 mg/kg, female, 6 hr): 21.0 ng/g
Avg. Conc. (Male or Female) ([2]; Anatabine 0.75 mg/kg, male, 0.5 hr): 276.0 ng/g
Avg. Conc. (Male or Female) ([2]; Anatabine 0.75 mg/kg, male, 6 hr): 21.3 ng/g
Avg. Conc. (Combined Male and Female) ([2]; Anatabine 1.0 mg/kg, 0.5 hr): 334.5 ng/g
Avg. Conc. (Combined Male and Female) ([2]; Anatabine 1.0 mg/kg, 6 hr): 5.4 ng/g
Avg. Conc. (Combined Male and Female) ([2]; Anatabine 1.0 mg/kg, 24 hr): 2.5 ng/g
Avg. Conc. (Male or Female) ([2]; Anatabine 1.0 mg/kg, female, 0.5 hr): 346.0 ng/g
Avg. Conc. (Male or Female) ([2]; Anatabine 1.0 mg/kg, female, 6 hr): 6.0 ng/g
Avg. Conc. (Male or Female) ([2]; Anatabine 1.0 mg/kg, male, 0.5 hr): 323.0 ng/g
Avg. Conc. (Male or Female) ([2]; Anatabine 1.0 mg/kg, male, 6 hr): 5.0 ng/g
Avg. Conc. (Male or Female) ([2]; Anatabine 1.0 mg/kg, male, 24 hr): 2.5 ng/g
Mean concentration in rat brain extracts ([2]; single i.v. 0.1 mg/kg, female, 0.5 hr): 29.7 ± 4.5 ng/g
Mean concentration in rat brain extracts ([2]; single i.v. 0.1 mg/kg, female, 6 hr): 3.7 ± 1.5 ng/g
Mean concentration in rat brain extracts ([2]; single i.v. 0.1 mg/kg, female, 24 hr): 2.0 ng/g
Mean concentration in rat brain extracts ([2]; single i.v. 0.1 mg/kg, male, 0.5 hr): 20.0 ± 1.4 ng/g
Mean concentration in rat brain extracts ([2]; single i.v. 0.1 mg/kg, male, 6 hr): 3.0 ng/g
Mean concentration in rat brain extracts ([2]; single i.v. 0.1 mg/kg, male, 24 hr): 3.0 ng/g
Mean concentration in rat brain extracts ([2]; single i.v. 0.75 mg/kg, female, 0.5 hr): 314.7 ± 67.9 ng/g
Mean concentration in rat brain extracts ([2]; single i.v. 0.75 mg/kg, female, 6 hr): 21.0 ± 6.2 ng/g
Mean concentration in rat brain extracts ([2]; single i.v. 0.75 mg/kg, male, 0.5 hr): 276.0 ± 37.0 ng/g
Mean concentration in rat brain extracts ([2]; single i.v. 0.75 mg/kg, male, 6 hr): 21.3 ± 5.1 ng/g
Mean concentration in rat brain extracts ([2]; single i.v. 1.0 mg/kg, female, 0.5 hr): 346.0 ± 56.7 ng/g
Mean concentration in rat brain extracts ([2]; single i.v. 1.0 mg/kg, female, 6 hr): 6.0 ± 2.8 ng/g
Mean concentration in rat brain extracts ([2]; single i.v. 1.0 mg/kg, male, 0.5 hr): 323.0 ± 35.9 ng/g
Mean concentration in rat brain extracts ([2]; single i.v. 1.0 mg/kg, male, 6 hr): 5.0 ± 2.6 ng/g
Mean concentration in rat brain extracts ([2]; single i.v. 1.0 mg/kg, male, 24 hr): 2.5 ± 0.7 ng/g
